For at least one compound, name, drawing or mass did not settle the structure.
Tested on: formalin-injected mice
Test: Formalin-induced chronic pain-like state (CPLS): persistent hypersensitivity to heat and mechanical stimuli
Type: in vivo, mouse
Details: on PFD2-4; PEA 30 mg-kg^−1 subcutaneous, fenofibrate 100 mg-kg^−1 IP

**Q.** Which CPLS does the source give for `CC(C)OC(=O)C(C)(C)Oc1ccc(C(=O)c2ccc(Cl)cc2)cc1` [fenofibrate] here?
**A.** not

— patent publication US20240252486A1, “ALGOSTATIC AGENTS FOR PREVENTING TRANSITION FROM ACUTE TO CHRONIC PAIN” (The Regents of the University of California, priority 2021, published 2024)
